# Results reported in the supplement of paper PMC8728848.
# Some of the results follow.
# How the values were obtained:
# Assay in all cases: glycan array binding signal (z-score within array); higher = stronger binding
# Settings in all cases: glycan notation: IUPAC condensed, linker removed
# [1] = molecular target: GlcNAc(b1-3)Gal(b1-4)GlcNAc(b1-3)GalNAc
# Summary of the method: (§1)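 Negative Z-scores can be read as non-binding. The Z-score is calculated within each array and then averaged across arrays of one protein sequence at different concentrations or buffers and across linkers. Arrays, 3228 in all, were curated from the Consortium for Functional Glycomics database and kept only where the protein sequence was available.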
# [2] = molecular target: GlcNAc(b1-3)Gal(b1-4)GlcNAc(b1-3)[GlcNAc(b1-3)Gal(b1-4)GlcNAc(b1-3)]GalNAc
# Summary of the method: as §1
# [3] = molecular target: GlcNAc(b1-3)Gal(b1-4)GlcNAc(b1-6)[Gal(b1-3)]GalNAc
# Summary of the method: as §1
# [4] = molecular target: GlcNAc(b1-3)Gal(b1-4)GlcNAc(b1-6)[GlcNAc(b1-3)Gal(b1-3)]GalNAc
# Summary of the method: as §1
# [5] = molecular target: GlcNAc(b1-3)Gal(b1-4)GlcNAc(b1-6)[GlcNAc(b1-3)]Gal(b1-4)GlcNAc
# Summary of the method: as §1
# GlcNAc(b1-3)GalNAc = molecular target: GlcNAc(b1-3)GalNAc
# Summary of the method: as §1
# GlcNAc(b1-3)Man = molecular target: GlcNAc(b1-3)Man
# Summary of the method: as §1
# [6] = molecular target: GlcNAc(b1-3)[GlcNAc(b1-4)][GlcNAc(b1-6)]GlcNAc
# Summary of the method: as §1
# [7] = molecular target: GlcNAc(b1-3)[GlcNAc(b1-6)]Gal(b1-4)GlcNAc
# Summary of the method: as §1
# [8] = molecular target: GlcNAc(b1-3)[GlcNAc(b1-6)]GalNAc
# Summary of the method: as §1
# [9] = molecular target: GlcNAc(b1-4)Gal(b1-4)GlcNAc
# Summary of the method: as §1
# GlcNAc(b1-4)GlcNAc = molecular target: GlcNAc(b1-4)GlcNAc
# Summary of the method: as §1
# [10] = molecular target: GlcNAc(b1-4)GlcNAc(b1-4)GlcNAc
# Summary of the method: as §1
# [11] = molecular target: GlcNAc(b1-4)GlcNAc(b1-4)GlcNAc(b1-4)GlcNAc(b1-4)GlcNAc
# Summary of the method: as §1
# [12] = molecular target: GlcNAc(b1-4)GlcNAc(b1-4)GlcNAc(b1-4)GlcNAc(b1-4)GlcNAc(b1-4)GlcNAc
# Summary of the method: as §1
# [13] = molecular target: GlcNAc(b1-4)[GlcNAc(b1-6)]GalNAc
# Summary of the method: as §1
# [14] = molecular target: GlcNAc(b1-6)Gal(b1-4)GlcNAc
# Summary of the method: as §1
# GlcNAc(b1-6)GalNAc = molecular target: GlcNAc(b1-6)GalNAc
# Summary of the method: as §1
# [15] = molecular target: GlcNAc6S(b1-3)Gal(b1-4)GlcNAc
# Summary of the method: as §1
# Kdn(a2-3)Gal(b1-3)GalNAc = molecular target: Kdn(a2-3)Gal(b1-3)GalNAc
# Summary of the method: as §1
# Kdn(a2-3)Gal(b1-3)GlcNAc = molecular target: Kdn(a2-3)Gal(b1-3)GlcNAc
# Summary of the method: as §1
# Kdn(a2-3)Gal(b1-4)Glc = molecular target: Kdn(a2-3)Gal(b1-4)Glc
# Summary of the method: as §1
# Kdn(a2-3)Gal(b1-4)GlcNAc = molecular target: Kdn(a2-3)Gal(b1-4)GlcNAc
# Summary of the method: as §1
# [16] = molecular target: Kdn(a2-3)Gal(b1-4)[Fuc(a1-3)]GlcNAc
# Summary of the method: as §1
# Kdn(a2-6)Gal(b1-4)GlcNAc = molecular target: Kdn(a2-6)Gal(b1-4)GlcNAc
# Summary of the method: as §1
# [17] = molecular target: Man(a1-2)Man(a1-2)Man(a1-3)Man
# Summary of the method: as §1
# [18] = molecular target: Man(a1-2)Man(a1-2)Man(a1-6)[Man(a1-3)]Man
# Summary of the method: as §1
# Man(a1-2)Man(a1-3)Man = molecular target: Man(a1-2)Man(a1-3)Man
# Summary of the method: as §1
# [19] = molecular target: Man(a1-2)Man(a1-3)[Man(a1-2)Man(a1-6)]Man
# Summary of the method: as §1
# [20] = molecular target: Man(a1-2)Man(a1-3)[Man(a1-2)Man(a1-6)]Man(a1-6)[Man(a1-2)Man(a1-2)Man(a1-3)]Man
# Summary of the method: as §1
# [21] = molecular target: Man(a1-2)Man(a1-3)[Man(a1-2)Man(a1-6)]Man(a1-6)[Man(a1-2)Man(a1-2)Man(a1-3)]Man(b1-4)GlcNAc(b1-4)GlcNAc
# Summary of the method: as §1
# [22] = molecular target: Man(a1-2)Man(a1-3)[Man(a1-6)]Man(a1-6)[Man(a1-2)Man(a1-3)]Man(b1-4)GlcNAc(b1-4)GlcNAc
# Summary of the method: as §1
# [23] = molecular target: Man(a1-2)Man(a1-6)[Man(a1-3)]Man(a1-6)[Man(a1-2)Man(a1-2)Man(a1-3)]Man
# Summary of the method: as §1
# [24] = molecular target: Man(a1-2)Man(a1-6)[Man(a1-3)]Man(a1-6)[Man(a1-2)Man(a1-2)Man(a1-3)]Man(b1-4)GlcNAc(b1-4)GlcNAc
# Summary of the method: as §1
# Man(a1-3)[Man(a1-6)]Man = molecular target: Man(a1-3)[Man(a1-6)]Man
# Summary of the method: as §1
# [25] = molecular target: Man(a1-3)[Man(a1-6)]Man(a1-6)[Man(a1-2)Man(a1-3)]Man(b1-4)GlcNAc(b1-4)GlcNAc
# Summary of the method: as §1
# [26] = molecular target: Man(a1-3)[Man(a1-6)]Man(a1-6)[Man(a1-3)]Man
# Summary of the method: as §1
# [27] = molecular target: Man(a1-3)[Man(a1-6)]Man(a1-6)[Man(a1-3)]Man(b1-4)GlcNAc(b1-4)GlcNAc
# Summary of the method: as §1
# [28] = molecular target: Man(a1-3)[Man(a1-6)]Man(b1-4)GlcNAc(b1-4)GlcNAc
# Summary of the method: as §1
# [29] = molecular target: Man(a1-3)[Man(a1-6)]Man(b1-4)GlcNAc(b1-4)[Fuc(a1-6)]GlcNAc
# Summary of the method: as §1
# Man(a1-6)Man = molecular target: Man(a1-6)Man
# Summary of the method: as §1
# Man(b1-4)GlcNAc = molecular target: Man(b1-4)GlcNAc
# Summary of the method: as §1
# MurNAc(b1-4)GlcNAc = molecular target: MurNAc(b1-4)GlcNAc
# Summary of the method: as §1
# Neu5Ac(a2-3)Gal = molecular target: Neu5Ac(a2-3)Gal
# Summary of the method: as §1
# [30] = molecular target: Neu5Ac(a2-3)Gal(b1-3)GalNAc
# Summary of the method: as §1
binder,measurement,setting,value
HFR-3 (Triticum aestivum) (protein) MKGLLLCALALAFAAVTTHAQLQSCPTRCGKQADGMECPNNLCCSKDGYCGLGVDYCSAGAGCQSGACYDNKICGAQANGTLCRNNHCCSSGGRCGYGREYCSNGCQGGPCWADLKCGHLDNGKLCPNNLCCSQYGYCGLGPEFCGTGCQNGACSTDKPCGNKANGAPCTNNYCCSQYGSCGLGKDYCGTGCQNGACN,glycan array binding signal (z-score),[1],-0.886
same,glycan array binding signal (z-score),[2],0.04
same,glycan array binding signal (z-score),[3],-0.109
same,glycan array binding signal (z-score),[4],-1.06
same,glycan array binding signal (z-score),[5],-1.09
same,glycan array binding signal (z-score),GlcNAc(b1-3)GalNAc,2.18
same,glycan array binding signal (z-score),GlcNAc(b1-3)Man,1.29
same,glycan array binding signal (z-score),[6],-0.564
same,glycan array binding signal (z-score),[7],0.507
same,glycan array binding signal (z-score),[8],-0.463
same,glycan array binding signal (z-score),[9],1
same,glycan array binding signal (z-score),GlcNAc(b1-4)GlcNAc,0.363
same,glycan array binding signal (z-score),[10],-0.527
same,glycan array binding signal (z-score),[11],-0.387
same,glycan array binding signal (z-score),[12],0.63
same,glycan array binding signal (z-score),[13],-0.003
same,glycan array binding signal (z-score),[14],1.51
same,glycan array binding signal (z-score),GlcNAc(b1-6)GalNAc,-0.591
same,glycan array binding signal (z-score),[15],1.06
same,glycan array binding signal (z-score),Kdn(a2-3)Gal(b1-3)GalNAc,2.75
same,glycan array binding signal (z-score),Kdn(a2-3)Gal(b1-3)GlcNAc,-1.78
same,glycan array binding signal (z-score),Kdn(a2-3)Gal(b1-4)Glc,0.83
same,glycan array binding signal (z-score),Kdn(a2-3)Gal(b1-4)GlcNAc,0.46
same,glycan array binding signal (z-score),[16],-0.099
same,glycan array binding signal (z-score),Kdn(a2-6)Gal(b1-4)GlcNAc,-1.3
same,glycan array binding signal (z-score),[17],0.279
same,glycan array binding signal (z-score),[18],1.93
same,glycan array binding signal (z-score),Man(a1-2)Man(a1-3)Man,-1.73
same,glycan array binding signal (z-score),[19],-0.898
same,glycan array binding signal (z-score),[20],-0.42
same,glycan array binding signal (z-score),[21],0.941
same,glycan array binding signal (z-score),[22],-0.991
same,glycan array binding signal (z-score),[23],0.636
same,glycan array binding signal (z-score),[24],-1.2
same,glycan array binding signal (z-score),Man(a1-3)[Man(a1-6)]Man,-0.379
same,glycan array binding signal (z-score),[25],-0.653
same,glycan array binding signal (z-score),[26],2.17
same,glycan array binding signal (z-score),[27],3.89
same,glycan array binding signal (z-score),[28],0.828
same,glycan array binding signal (z-score),[29],-0.335
same,glycan array binding signal (z-score),Man(a1-6)Man,1.66
same,glycan array binding signal (z-score),Man(b1-4)GlcNAc,0.587
same,glycan array binding signal (z-score),MurNAc(b1-4)GlcNAc,1.28
same,glycan array binding signal (z-score),Neu5Ac(a2-3)Gal,-0.367
same,glycan array binding signal (z-score),[30],-0.378

# Another view of part of the listing above.
binder	measurement	setting	value
HFR-3 (Triticum aestivum) (protein) MKGLLLCALALAFAAVTTHAQLQSCPTRCGKQADGMECPNNLCCSKDGYCGLGVDYCSAGAGCQSGACYDNKICGAQANGTLCRNNHCCSSGGRCGYGREYCSNGCQGGPCWADLKCGHLDNGKLCPNNLCCSQYGYCGLGPEFCGTGCQNGACSTDKPCGNKANGAPCTNNYCCSQYGSCGLGKDYCGTGCQNGACN	glycan array binding signal (z-score)	GlcNAc(b1-3)Man	1.29
same	glycan array binding signal (z-score)	[9]	1
same	glycan array binding signal (z-score)	[17]	0.279
